# Laboratory results reported in paper PMC8754637.
# Amino acid sequences for entries named in this document (tags omitted).
# UniProt P36594: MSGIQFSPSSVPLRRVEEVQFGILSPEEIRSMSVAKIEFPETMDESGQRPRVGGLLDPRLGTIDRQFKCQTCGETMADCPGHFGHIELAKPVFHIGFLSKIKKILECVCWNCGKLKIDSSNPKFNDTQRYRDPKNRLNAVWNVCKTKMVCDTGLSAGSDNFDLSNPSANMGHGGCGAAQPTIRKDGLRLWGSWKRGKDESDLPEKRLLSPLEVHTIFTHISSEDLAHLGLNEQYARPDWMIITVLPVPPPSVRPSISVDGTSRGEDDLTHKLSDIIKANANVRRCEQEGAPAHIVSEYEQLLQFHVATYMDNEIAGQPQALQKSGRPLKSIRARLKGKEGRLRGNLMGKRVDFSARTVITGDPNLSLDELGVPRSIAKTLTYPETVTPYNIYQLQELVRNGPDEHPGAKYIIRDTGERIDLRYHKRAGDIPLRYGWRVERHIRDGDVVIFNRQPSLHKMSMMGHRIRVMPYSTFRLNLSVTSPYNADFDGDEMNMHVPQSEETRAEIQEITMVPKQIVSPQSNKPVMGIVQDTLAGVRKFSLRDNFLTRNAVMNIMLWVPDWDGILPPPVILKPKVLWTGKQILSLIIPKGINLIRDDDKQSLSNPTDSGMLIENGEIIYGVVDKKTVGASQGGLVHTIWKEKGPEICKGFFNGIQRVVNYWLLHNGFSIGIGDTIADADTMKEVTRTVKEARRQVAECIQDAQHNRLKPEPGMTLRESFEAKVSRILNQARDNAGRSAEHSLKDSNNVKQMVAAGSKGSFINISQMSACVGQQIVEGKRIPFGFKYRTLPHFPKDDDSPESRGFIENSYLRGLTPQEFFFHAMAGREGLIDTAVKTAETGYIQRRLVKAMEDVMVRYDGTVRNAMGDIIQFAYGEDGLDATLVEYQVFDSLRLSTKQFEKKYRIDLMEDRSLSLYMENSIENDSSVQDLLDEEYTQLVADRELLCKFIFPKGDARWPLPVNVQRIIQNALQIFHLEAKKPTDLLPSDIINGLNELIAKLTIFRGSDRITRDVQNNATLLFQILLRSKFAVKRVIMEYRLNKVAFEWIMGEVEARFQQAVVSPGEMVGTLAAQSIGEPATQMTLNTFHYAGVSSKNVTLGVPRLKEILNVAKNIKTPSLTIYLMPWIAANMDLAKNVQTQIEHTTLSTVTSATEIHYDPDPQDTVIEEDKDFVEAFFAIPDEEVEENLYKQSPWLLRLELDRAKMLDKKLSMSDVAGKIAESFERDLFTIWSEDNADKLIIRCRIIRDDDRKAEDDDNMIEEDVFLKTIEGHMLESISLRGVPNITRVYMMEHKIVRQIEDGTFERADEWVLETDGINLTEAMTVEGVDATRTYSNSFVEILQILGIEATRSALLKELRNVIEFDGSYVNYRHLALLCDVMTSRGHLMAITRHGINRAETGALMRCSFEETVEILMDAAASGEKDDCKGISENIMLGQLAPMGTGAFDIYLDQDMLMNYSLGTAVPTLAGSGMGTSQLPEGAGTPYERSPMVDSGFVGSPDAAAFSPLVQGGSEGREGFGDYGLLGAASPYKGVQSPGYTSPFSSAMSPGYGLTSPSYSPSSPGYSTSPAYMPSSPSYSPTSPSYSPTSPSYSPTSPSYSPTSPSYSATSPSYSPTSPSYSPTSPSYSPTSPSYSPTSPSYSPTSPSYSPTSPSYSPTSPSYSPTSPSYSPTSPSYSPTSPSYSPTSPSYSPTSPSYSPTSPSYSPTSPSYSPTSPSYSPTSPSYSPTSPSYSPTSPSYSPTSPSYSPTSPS
# No constants are given. Whether binding was seen depends on the method and setting. In cells and extracts the contact can be indirect. Some entries that bind do so weakly or less than the wild type. Where a sequence is shown, tags or fusion partners need not be part of it.
# T1: Flag-tagged Upf1 (S. pombe) (UniProt Q09820)
# T1 sequence: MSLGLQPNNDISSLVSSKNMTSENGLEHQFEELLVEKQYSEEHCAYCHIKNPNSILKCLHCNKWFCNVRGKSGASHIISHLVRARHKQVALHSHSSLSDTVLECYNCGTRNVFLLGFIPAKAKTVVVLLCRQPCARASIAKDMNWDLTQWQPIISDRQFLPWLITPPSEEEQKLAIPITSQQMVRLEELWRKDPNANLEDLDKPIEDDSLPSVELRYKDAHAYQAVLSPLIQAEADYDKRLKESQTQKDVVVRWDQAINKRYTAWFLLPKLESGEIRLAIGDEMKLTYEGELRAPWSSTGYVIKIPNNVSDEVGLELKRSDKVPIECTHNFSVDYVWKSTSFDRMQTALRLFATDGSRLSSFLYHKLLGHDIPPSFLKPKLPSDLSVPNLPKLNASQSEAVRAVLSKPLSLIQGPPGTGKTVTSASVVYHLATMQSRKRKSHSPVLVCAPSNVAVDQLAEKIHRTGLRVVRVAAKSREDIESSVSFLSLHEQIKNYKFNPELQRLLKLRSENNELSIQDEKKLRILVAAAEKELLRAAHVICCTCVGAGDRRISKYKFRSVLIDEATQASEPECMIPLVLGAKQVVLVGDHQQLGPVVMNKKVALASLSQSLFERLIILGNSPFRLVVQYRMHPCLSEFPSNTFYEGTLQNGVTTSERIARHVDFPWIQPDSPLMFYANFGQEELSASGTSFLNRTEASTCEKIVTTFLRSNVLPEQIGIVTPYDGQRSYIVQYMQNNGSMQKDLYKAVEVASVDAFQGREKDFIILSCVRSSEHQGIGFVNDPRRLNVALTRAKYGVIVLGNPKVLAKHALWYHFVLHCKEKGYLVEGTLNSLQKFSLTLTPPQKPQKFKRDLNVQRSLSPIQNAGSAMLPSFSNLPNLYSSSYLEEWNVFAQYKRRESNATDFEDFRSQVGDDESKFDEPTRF
# T2: Flag tagged Rpb3 subunit of Pol II (S. pombe) (UniProt P37382)
# T2 sequence: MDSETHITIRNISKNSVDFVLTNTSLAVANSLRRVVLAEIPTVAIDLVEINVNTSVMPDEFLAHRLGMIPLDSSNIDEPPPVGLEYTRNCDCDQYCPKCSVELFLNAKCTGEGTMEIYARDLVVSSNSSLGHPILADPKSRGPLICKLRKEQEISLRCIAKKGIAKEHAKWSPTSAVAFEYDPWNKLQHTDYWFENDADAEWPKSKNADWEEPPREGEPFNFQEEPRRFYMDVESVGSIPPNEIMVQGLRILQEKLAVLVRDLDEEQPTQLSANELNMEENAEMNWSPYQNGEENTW
# Experiments:
# [1] = target: T1, Flag-tagged Upf1 (S. pombe); experiment: co-IP; reverse experiment: Upf1-Flag held on anti-Flag antibody-coated Dynabeads from DNase-treated S. pombe lysate, same buffers, eluted with Flag peptide; read by western blotting
# [2] = target: T2, Flag tagged Rpb3 subunit of Pol II (S. pombe); experiment: co-IP; Flag-Rpb3 held on anti-Flag antibody-coated Dynabeads from DNase-treated S. pombe lysate (HEPES 20 mM, KAc 110 mM, Triton X-100 0.5%, Tween 20 0.1%, RNase inhibitor), 1 h at 4°C, 6 washes, eluted with Flag peptide; read by silver-stained SDS-PAGE, mass spectrometry and western blotting; wild-type, upf1Δ and Upf1-HA strains
binding [1],binding [2],Molecule
no binding,binds,"Rpb1, largest subunit of Pol II (from UniProt P36594 1-1752)"
–,no binding,"Upf1 tagged with HA (protein, UniProt Q09820 1-925) MSLGLQPNNDISSLVSSKNMTSENGLEHQFEELLVEKQYSEEHCAYCHIKNPNSILKCLHCNKWFCNVRGKSGASHIISHLVRARHKQVALHSHSSLSDTVLECYNCGTRNVFLLGFIPAKAKTVVVLLCRQPCARASIAKDMNWDLTQWQPIISDRQFLPWLITPPSEEEQKLAIPITSQQMVRLEELWRKDPNANLEDLDKPIEDDSLPSVELRYKDAHAYQAVLSPLIQAEADYDKRLKESQTQKDVVVRWDQAINKRYTAWFLLPKLESGEIRLAIGDEMKLTYEGELRAPWSSTGYVIKIPNNVSDEVGLELKRSDKVPIECTHNFSVDYVWKSTSFDRMQTALRLFATDGSRLSSFLYHKLLGHDIPPSFLKPKLPSDLSVPNLPKLNASQSEAVRAVLSKPLSLIQGPPGTGKTVTSASVVYHLATMQSRKRKSHSPVLVCAPSNVAVDQLAEKIHRTGLRVVRVAAKSREDIESSVSFLSLHEQIKNYKFNPELQRLLKLRSENNELSIQDEKKLRILVAAAEKELLRAAHVICCTCVGAGDRRISKYKFRSVLIDEATQASEPECMIPLVLGAKQVVLVGDHQQLGPVVMNKKVALASLSQSLFERLIILGNSPFRLVVQYRMHPCLSEFPSNTFYEGTLQNGVTTSERIARHVDFPWIQPDSPLMFYANFGQEELSASGTSFLNRTEASTCEKIVTTFLRSNVLPEQIGIVTPYDGQRSYIVQYMQNNGSMQKDLYKAVEVASVDAFQGREKDFIILSCVRSSEHQGIGFVNDPRRLNVALTRAKYGVIVLGNPKVLAKHALWYHFVLHCKEKGYLVEGTLNSLQKFSLTLTPPQKPQKFKRDLNVQRSLSPIQNAGSAMLPSFSNLPNLYSSSYLEEWNVFAQYKRRESNATDFEDFRSQVGDDESKFDEPTRF"
–,no binding,"Upf1 (untagged, endogenous) (protein, UniProt Q09820 1-925) MSLGLQPNNDISSLVSSKNMTSENGLEHQFEELLVEKQYSEEHCAYCHIKNPNSILKCLHCNKWFCNVRGKSGASHIISHLVRARHKQVALHSHSSLSDTVLECYNCGTRNVFLLGFIPAKAKTVVVLLCRQPCARASIAKDMNWDLTQWQPIISDRQFLPWLITPPSEEEQKLAIPITSQQMVRLEELWRKDPNANLEDLDKPIEDDSLPSVELRYKDAHAYQAVLSPLIQAEADYDKRLKESQTQKDVVVRWDQAINKRYTAWFLLPKLESGEIRLAIGDEMKLTYEGELRAPWSSTGYVIKIPNNVSDEVGLELKRSDKVPIECTHNFSVDYVWKSTSFDRMQTALRLFATDGSRLSSFLYHKLLGHDIPPSFLKPKLPSDLSVPNLPKLNASQSEAVRAVLSKPLSLIQGPPGTGKTVTSASVVYHLATMQSRKRKSHSPVLVCAPSNVAVDQLAEKIHRTGLRVVRVAAKSREDIESSVSFLSLHEQIKNYKFNPELQRLLKLRSENNELSIQDEKKLRILVAAAEKELLRAAHVICCTCVGAGDRRISKYKFRSVLIDEATQASEPECMIPLVLGAKQVVLVGDHQQLGPVVMNKKVALASLSQSLFERLIILGNSPFRLVVQYRMHPCLSEFPSNTFYEGTLQNGVTTSERIARHVDFPWIQPDSPLMFYANFGQEELSASGTSFLNRTEASTCEKIVTTFLRSNVLPEQIGIVTPYDGQRSYIVQYMQNNGSMQKDLYKAVEVASVDAFQGREKDFIILSCVRSSEHQGIGFVNDPRRLNVALTRAKYGVIVLGNPKVLAKHALWYHFVLHCKEKGYLVEGTLNSLQKFSLTLTPPQKPQKFKRDLNVQRSLSPIQNAGSAMLPSFSNLPNLYSSSYLEEWNVFAQYKRRESNATDFEDFRSQVGDDESKFDEPTRF"
